Laboratory results from PubChem BioAssay AID1508600 (Functional Genomics Laboratory (NCATS/FGL), 2020).
Screen size: about 53,000 sequences; about 3,700 (7%) were called active.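 How the source made its calls: active means gene knockdowns whose robust z-score for IL-1 alpha signal is at least 2 or at most -2, so actives lie on both sides; inactive means the rest.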 This is one part of the list.

Test: Components of the Cytosolic LPS Sensing Pathway: Gene Identification via Genome-wide siRNA Screen;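 further: robust z of the log signal after scaling to non-targeting control siRNA wells of the plate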
Conditions: RAW264.7 macrophages, IL-1a HTRF, actives lie on both sides, screened at 100 nM (by protocol), cells primed 5 h with Pam3CSK4 first
In short: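 Three distinct siRNAs per gene were tested singly at 100 nM in RAW264.7 macrophages. Following Pam3CSK4 priming and 24 hour LipidA transfection, IL-1a secretion was read by HTRF.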
With GGAUUUUGAUCUAAUGAGATT against Zfp354c the z-score was inactive: 0.366.
In the case of GGACAGCAAAAAAGAUGUGTT against Myo6, the z-score is reported as inactive: -0.446.
For GCAUUCCAAAUGGUAGACATT against Lgals4, the z-score was inactive: -0.357.
For GGAGCAAGCAUGCAAGGUGTT against Cstf2, the z-score was inactive: 0.916.
With GGAAAAAGAUAGAACCAGATT against Larp1b the z-score was inactive: -0.177.
With GGCAUGGACAUUGAUGACATT against Dnajb1 the z-score was inactive: -0.834.
With GGCAUGUAUCAUUUUGUCATT against Pde12 the z-score was inactive: -1.12.
In the case of GGAUGCAAUCGACAUGGAGTT against Atp5pb, the z-score is reported as active: 2.71.
For GGAAAUAAGACCAACAUACTT against Arhgap19, the z-score was inactive: 0.0474.
For GGUGUUGUGAAGUCUUUUGTT against Xk, the z-score was inactive: 0.859.
In the case of GGCCAGUCACUAAAAUCACTT against Mbd3l1, the z-score is reported as inactive: 0.169.
With GCGCAGAACAGCCCUAUAATT against Ndufs5 the z-score was inactive: -1.27.
For GGAUCCUUACAAUAACAUUTT against Mmut, the z-score was active: 2.04.
In the case of GCUCAUGUUGCUGUUAAUATT against Haus6, the z-score is reported as inactive: 0.463.
With GGCAUUAAGAUCAUUAAGCTT against Myadm the z-score was inactive: 0.674.
In the case of GGAUGUCUGUACAUACAGATT against Tshb, the z-score is reported as inactive: 0.661.
With GCGGAAGGUUUACAAUGAUTT against Dyrk1a the z-score was inactive: -0.323.
In the case of CGAGAGAACUCUCACCUAUTT against Spata21, the z-score is reported as inactive: -1.13.
In the case of GGAGGAUGGAGUCAUAUAUTT against Gm773, the z-score is reported as inactive: -0.41.
In the case of GGCAAUUGUGCUAUUGAGUTT against AA986860, the z-score is reported as inactive: -1.4.
In the case of GGAUCUUUUCCAACAAAUATT against Tmsb15a, the z-score is reported as inactive: -0.612.
For ACGACGAUCUUUCAGAAGUTT against N4bp2, the z-score was inactive: 1.28.
With GGAUCAUGAGAAUAUCAUCTT against P4hb the z-score was inactive: 0.816.
In the case of GACUUCAGACAAAUAGUGCTT against Lce1i, the z-score is reported as inactive: -1.24.
With CCAGAAUGUUACAUGCAGGTT against Vmn2r7 the z-score was inactive: -0.241.
With GGAGAGAACUGAUGAAUCCTT against Sdhaf2 the z-score was inactive: -0.26.
For GCUACCUCUUGCAUGGGAGTT against Bivm, the z-score was inactive: -0.0737.
In the case of GCAUCAUUCGCUGUGAUGATT against Trim23, the z-score is reported as inactive: -1.55.
With GGAAGAAAUGCAGUUCUAATT against Nhlrc3 the z-score was inactive: 0.145.
For GGAUAGGGUCCAUCAUGGATT against Rcn3, the z-score was inactive: -0.891.
In the case of GGCAACCUGCUGGUAAUCATT against Adrb3, the z-score is reported as active: 3.53.
With GCAAGAAGGGACACAGUUUTT against Plk1 the z-score was inactive: 0.276.
For GCCGAAGUCGACAAUAAUCTT against Slc22a14, the z-score was inactive: -0.13.
With GGACAAAACUAAACAGCAATT against Smarcal1 the z-score was inactive: -0.662.
For GGGAGGCAGAAAGUCUUCUTT against Olfr1043, the z-score was inactive: -0.192.
For GGACAAAUUUGGAUAAAUGTT against Abcg8, the z-score was inactive: -0.367.
With GGUGCAUGGGACUUAAUAGTT against Nelfb the z-score was inactive: 1.56.
In the case of GGACUGCUUUUGCUAUGAATT against Cys1, the z-score is reported as inactive: -1.07.
With GGUGAUCCAAGACUUCCAGTT against Actl6b the z-score was inactive: 1.16.
In the case of CCCUAUUGAGAAGUGUAUGTT against Il4i1, the z-score is reported as inactive: 1.13.
With GGCACUCAGGAACUUCCUGTT against Eci3 the z-score was active: -2.05.
In the case of GGAUUUGGAUUGACCCUUGTT against Grwd1, the z-score is reported as inactive: 1.11.
With GGUCAGAUAAAACUCUUCATT against Bmi1 the z-score was inactive: -0.398.
In the case of CCACAUGACCUACUUUUCCTT against Togaram2, the z-score is reported as inactive: -0.337.
For GCCUGUGCUUAAUUUAAGGTT against Yme1l1, the z-score was inactive: -0.346.
In the case of GGAUCAAUGCAUGGAAUUCTT against Ugdh, the z-score is reported as inactive: 1.57.
For GGAUUUUGCUCAGACGACATT against Taf1a, the z-score was inactive: 0.291.
In the case of GGUAACCACAGUAGUGGCATT against Gsk3b, the z-score is reported as inactive: -1.03.
For GGUCAAGUUCAAGUGAGGATT against Ptgr2, the z-score was inactive: -0.582.
With GGAACUCACUUACUUAUGUTT against Prrx2 the z-score was inactive: 0.669.
For GGCUUUAAGGGACAACUGATT against Yipf3, the z-score was inactive: -0.576.
With AUCUCAGCCUUGGUACGUGTT against Nkain1 the z-score was inactive: -1.86.
With GGUGACAGUACAGAAAAGUTT against Rnf135 the z-score was inactive: 0.118.
For GUGUAUGUUCACCAAGCUCTT against Klk1b16, the z-score was inactive: 1.24.
With GGGCCAGCUUUCAAUAUUGTT against Man2a1 the z-score was inactive: 0.723.
With GGUACUUUGAUGACGAGUUTT against Akt2 the z-score was inactive: -1.91.
For GGAUACUUGAUGAACUUUGTT against Ano2, the z-score was inactive: -0.845.
For GCCAACCUGUACGAAAAAGTT against Zfp868, the z-score was inactive: -0.945.
With GCCUGAUAGUGCAGAAACATT against Rabl2 the z-score was inactive: -0.233.
For GCCCAAAGUGAUUCACUAGTT against Acvrl1, the z-score was inactive: -1.54.
With GGUGUUCAGAUGGUUCCCATT against Exosc1 the z-score was inactive: -1.19.
In the case of GGUGCUCGAAAACUGGUUCTT against Tbrg1, the z-score is reported as inactive: -0.368.
In the case of GGAUGUUCUGAGGACCAACTT against Cct6a, the z-score is reported as inactive: 0.25.
For GGCCCAUCCCACAAUGAUATT against Atg9b, the z-score was inactive: -0.998.
In the case of CCAUACACAUGUAAUUCUCTT against Zmat3, the z-score is reported as inactive: -0.159.
For GGAUACUGGCAUGAAAUUGTT against Slc22a2, the z-score was inactive: -0.888.
With GCGAAUGCUUAAAAUAGCATT against Ift81 the z-score was inactive: 0.333.
For GGGAUGCUGUAGAUAUUAATT against Fcgr2b, the z-score was inactive: -0.622.
With GCUACUCCAUUUACAUCUATT against H2bc1 the z-score was inactive: -0.122.
In the case of CGAUGGUCGAAGGAUUGUCTT against Tnfsf4, the z-score is reported as inactive: -0.837.
For CCAUUUCAGGCAUGAAGAATT against Tsga10, the z-score was inactive: -1.13.
In the case of GGUUGAACCCACUCUGCAATT against Olfr1113, the z-score is reported as inactive: -0.752.
With CCAACACUGAGCUCAGAAGTT against Igfbp2 the z-score was inactive: -1.34.
In the case of UGGUUUCUCAAGCACUAGUTT against Kpna7, the z-score is reported as inactive: -1.85.
With GCUGUAUGAAGUUAGAUUUTT against Car8 the z-score was inactive: 0.019.
With GGUUUGUUUUACAAAAUGCTT against Zdhhc5 the z-score was inactive: 0.37.
In the case of GGCACAAUCACAUCACAGCTT against Lrrtm2, the z-score is reported as inactive: 0.622.
In the case of GGAUGCAGUUCAAAAGAGATT against Acox2, the z-score is reported as inactive: -0.573.
For CGAGAUCAGAAAACUGACUTT against Cpa4, the z-score was inactive: -0.825.
In the case of UGACUGGGCUAAUAGGAGATT against Olfr1469, the z-score is reported as inactive: 0.607.
For GCUCUUCAUAACUCUUGCUTT against Olfr1392, the z-score was inactive: -0.288.
In the case of GCUUGUGCGAGUGUUGGAUTT against Has1, the z-score is reported as active: 2.21.
In the case of GCACCCGGCACUAGAAAAATT against Shoc2, the z-score is reported as inactive: 1.02.
In the case of GGUUUUUCCAGCUGUUUUCTT against Olfr618, the z-score is reported as inactive: -0.232.
For GGUCAAGGAAUUAGUGAUUTT against Tctex1d1, the z-score was inactive: 0.398.
For GCUCCUCGAAUCCCUGUAGTT against Per3, the z-score was inactive: -0.622.
For CGAGGUCAAUUUUAGAGAGTT against Eloc, the z-score was inactive: -0.722.
For GGAUCACAGUGGUUCAGAATT against Snai2, the z-score was inactive: 1.31.
In the case of CCAGUCUCCGCCUCAGUAATT against Tex13c3, the z-score is reported as inactive: 0.309.
In the case of GGAAAAAUCAUGGAGAAAATT against Dhodh, the z-score is reported as inactive: -0.575.
In the case of GGUCUUAAGGAGAAAUGAATT against Cbln2, the z-score is reported as inactive: -0.48.
For UCCAGCUGGCGAAGUGGGCTT against Hs3st6, the z-score was inactive: 1.36.
With GGUCAUCACUUAUUACCCATT against Ptges2 the z-score was inactive: -1.72.
With GGACUACAGUCAUUAUUCATT against Sycp2 the z-score was active: 3.25.
For GCAGACUGAAUAUUGAAAGTT against Cry1, the z-score was inactive: 0.12.
In the case of CCAUCCCAUAUAACGAUCUTT against Oat, the z-score is reported as inactive: 0.00726.
For CCCAUAGAUUUUUUGACAGTT against Hbb-y, the z-score was inactive: -0.716.
In the case of GGACUCCAGAGAAAGAGGCTT against Tcf15, the z-score is reported as inactive: -0.854.
For CCCUCUGGUUACUAUUAUUTT against Tmem254a, the z-score was inactive: 0.808.
For CCAGUUCAAGAGACUCGUATT against Dio1, the z-score was inactive: 0.659.
For CCUUCAUGUCUGCAUAUUUTT against Cth, the z-score was inactive: -0.951.
With GGUGUGCUGAGAAGUACUGTT against Acot9 the z-score was inactive: -1.91.
In the case of GCUAAGAAAGUACAAACCATT against Tmpo, the z-score is reported as inactive: -1.12.
For GGGAGAAACAAGUGUGUAATT against Snrnp35, the z-score was inactive: 0.246.
For GGGAUUGGAAGAGAAAUGGTT against Hsd11b1, the z-score was inactive: 0.362.
With GGCUUUCACGCUUUGACAATT against Ap1m2 the z-score was inactive: 0.209.
In the case of GGGUAACUAACAUUAAUGGTT against Adam12, the z-score is reported as inactive: 1.58.
